From paper PMC6854512 come the findings set out here.

The chains behind the UniProt entries cited, without tags or fusion partners. A line that says so, or that is headed by a name, gives the form on record, which may keep a tag or linker. Residues count along the entry.
LASV GP1, receptor binding subunit, cleaved from the tagged LASV GP (P08669, residues 59-259): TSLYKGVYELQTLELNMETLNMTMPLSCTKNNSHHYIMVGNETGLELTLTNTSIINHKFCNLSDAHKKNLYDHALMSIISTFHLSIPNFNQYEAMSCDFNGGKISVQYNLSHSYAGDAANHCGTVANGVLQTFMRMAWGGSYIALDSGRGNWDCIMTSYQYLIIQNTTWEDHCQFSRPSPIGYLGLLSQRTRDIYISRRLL
UniProt P08669, residues 260-491: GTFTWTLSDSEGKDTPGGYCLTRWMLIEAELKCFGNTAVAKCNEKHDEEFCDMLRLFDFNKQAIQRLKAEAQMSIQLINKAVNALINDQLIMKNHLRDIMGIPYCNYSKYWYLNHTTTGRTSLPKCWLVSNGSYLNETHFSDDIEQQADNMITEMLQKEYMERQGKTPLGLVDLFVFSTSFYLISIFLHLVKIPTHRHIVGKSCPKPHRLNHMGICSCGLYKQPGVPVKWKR

No constants are given. Whether binding was seen depends on the method and setting. Binding seen in cells or lysates may run through a third protein. Some binding calls cover weakened binding; strength is not graded here.

The target of the experiment is LASV GP2, membrane fusion subunit, cleaved from the tagged LASV GP, with the C-terminal Twin-Strep-tag (Lassa virus (Josiah strain)) (UniProt P08669). Kind of experiment: co-IP; […] (48 h; […], pH 8.0) […].

Consider “LASV GP1, receptor binding subunit, cleaved from the tagged LASV GP (from UniProt P08669) (domain or fragment)”, for which the binding result is on record as “binds”.
